In PubChem BioAssay AID493014 (National Center for Advancing Translational Sciences (NCATS), 2011) one finds AC50 data, which are given here for 40 compounds.

Structures are written as SMILES. Values joined by “and” are separate entries in the source; they are usually repeats but may differ in a detail not shown here. Identical values can stand only once. This is one part of the list. The main result of the screen is listed elsewhere. These columns were measured beside it and carry no call. Compounds called inactive in the main read-out are mostly missing here. The note in brackets gives the kind of curve behind each potency; many fits are weak.

The test is described as follows: qHTS Assay to Find Inhibitors of Chronic Active B-Cell Receptor Signaling. To be noted: ABC-DLBCL IkBa-CBG/CBR reporter, luminescence ratio (green luciferase fused to IkBa over red control in TMD8 lymphoma cells), 4 h. The method, boiled down: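 Cell line TMD8 (human ABC DLBCL), stably expressing tet-inducible CBG68-IkBa fusion and CBR; IMDM/0.5% FBS; cpd up to 46 uM; dox induction, 4 h, 37C/5% CO2; dual luminescence; green/red ratio; MG132 control.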

Setting [1] is: measured here: CBR red luminescence, cell number.

Turning to `CCCCN(Cc1cc2ccccc2[nH]c1=O)S(=O)(=O)c1ccc(C)cc1`, the AC50 under setting [1] was 15.8 µM [falling, single point].

As to `Nc1c(-c2ccccc2)cnn1-c1ccc(C(=O)O)cc1`, the concentration at half-maximal activity (AC50) under setting [1] was 1.16 µM [falling, full curve].

Consider `COc1ccc([N+](=O)[O-])cc1NC(=O)C(C)Sc1nc(-c2ccccc2)cs1` (stereo unspecified), for which the concentration at half-maximal activity (AC50) under setting [1] was 14.6 µM [rising, partial curve].

Take `Cc1ccc(/C=C2\SC(=S)N(/N=C/c3cc([N+](=O)[O-])ccc3O)C2=O)o1`: under setting [1], the AC50 is 35.5 µM [falling, single point].

As for `O=C(Nc1cccc2c1CCCC2)C1CCN(c2nnnn2-c2ccccc2)CC1`, the AC50 under setting [1] is 23.1 µM [rising, single point].

As to `CCCCNc1c(-c2cccc(-c3cc(C(C)=O)cs3)c2)nc2cc(C)ccn12`, under setting [1], the AC50 is 14.6 µM [falling, partial curve].

On to `Cc1[nH]c(=O)[nH]c(=O)c1/C=N/NC(=O)CCCCCNC(=O)OC(C)(C)C`, for which the AC50 under setting [1] was 31.6 µM [rising, single point].

Consider `CC(C)CCNC(=S)Nc1ccc(Br)cc1`, for which the AC50 under setting [1] was 0.231 µM [rising, full curve, poor fit].

In the case of `Cc1nc(-c2ccc(NC(=O)C(C)(C)C)cc2)c(-c2ccccc2)o1`, under setting [1], the concentration at half-maximal activity (AC50) is 7.08 µM [rising, full curve].

Turning to `Cc1ccccc1Nc1nc(N)nc(COC(=O)CCS(=O)(=O)c2ccc(Cl)cc2)n1`, the AC50 under setting [1] was 8.2 µM [falling, partial curve].

As for `O=C(/C=C/c1ccccc1)NC(NC(=S)Nc1cc(Cl)ccc1Cl)C(Cl)(Cl)Cl` (stereo unspecified), the AC50 under setting [1] is 7.94 µM [rising, partial curve].

For the compound `Cc1c(OCC(=O)NCCN2CCOCC2)ccc2c1oc(=O)c1ccccc12`, under setting [1], the AC50 is 0.501 µM [rising, full curve, poor fit].

Turning to `CCCN(CCC)C(=O)CSc1nc2n[nH]c(C)c2c(=N)n1-c1ccc(OCC)cc1`, under setting [1], the AC50 is 14.1 µM [falling, single point].

Turning to `COc1ccc(-c2cc3nc4ccccc4n3c(N)c2C#N)cc1`, the AC50 under setting [1] is 0.447 µM [rising, full curve, poor fit].

`CCN1C[C@@H]2[C@@H]3C(=O)N(Cc4ccccc4)C(=O)[C@@H]3[C@](Cc3ccccc3)(C(=O)OC)N2C1=NC1CCCCC1`: under setting [1], the AC50 is 20.6 µM [falling, partial curve, poor fit].

On to `CCOCCOC(=O)c1[nH]c2c(c1C)C(=O)CC(c1cccs1)C2` (stereo unspecified), for which the AC50 under setting [1] was 0.631 µM [rising, full curve, poor fit] and the AC50 (measured here: IkBa-CBG green luminescence) is 1.12 µM [falling, full curve, poor fit].

In the case of `O=C(NC1CCCCC1)Oc1cc2oc(=O)sc2cc1Br`, the AC50 under setting [1] is 35.5 µM [rising, single point].

As for `O=C(Nc1ccc(NC(=O)C2CC2)cn1)c1ccccc1`, the AC50 under setting [1] is 7.08 µM [falling, partial curve].

With `Cc1ccc(-c2nnc(-c3cccc(Br)c3)o2)cc1`, the concentration at half-maximal activity (AC50) under setting [1] is 2.59 µM [rising, partial curve, poor fit].

On to `COc1ccc(N2CCN(C(=O)CCNS(=O)(=O)c3cc(Br)cnc3N)CC2)cc1`, for which the AC50 under setting [1] is 7.08 µM [falling, partial curve].

As to `COc1ccccc1OCc1nnc(SCC(=O)Nc2nnc(C3CC3)s2)n1C`, the AC50 under setting [1] was 3.55 µM [rising, partial curve, poor fit].

Turning to `COC(=O)c1sccc1NC(=O)c1ccc(Cl)s1`, under setting [1], the AC50 was 16.4 µM [falling, single point].

Take `Cc1cc(C)c(NC(=O)CNC(=O)COC(=O)/C=C/c2cccs2)c(C)c1`: the AC50 under setting [1] is 2.31 µM [rising, partial curve, poor fit].

With `CCS(=O)(=O)N1CCC(C(=O)NCc2ccc(OC)cc2OC)CC1`, under setting [1], the AC50 was 35.5 µM [rising, single point].

Take `O=C(Nc1ccc(F)cc1F)C1(c2cccs2)CCOCC1`: under setting [1], the AC50 was 20 µM [falling, single point].

In the case of `Cc1cc2cc3c(cc2nc1SCC(=O)N1CCOCC1)OCO3`, the AC50 under setting [1] is 6.31 µM [rising, partial curve, poor fit].

As to `CCCOc1ccc(OC(=O)c2ccc(Br)o2)cc1`, under setting [1], the AC50 was 17.8 µM [rising, partial curve, poor fit].

Turning to `CCCN(CCC)CCCNC(=O)c1ccc2c(Cl)c3c(nc2c1)CCC3`, the AC50 under setting [1] is 12.6 µM [falling, partial curve].

`CCOC(=O)c1c(/N=C/C2C(=O)CCCC2=O)sc2c1CCCC2`: the AC50 under setting [1] was 1 µM [falling, full curve].

For `CCOC(=O)c1cnc2ccc(Cl)cc2c1N1CCN(C)CC1`, the AC50 under setting [1] is 29.1 µM [falling, single point].

Regarding `C/C(CS(=O)(=O)c1ccc(Cl)c(Cl)c1)=N/NC(N)=S`, under setting [1], the half-maximal activity concentration (AC50) is 35.5 µM [falling, single point].

Regarding `CCOC(=O)CNC(=O)CSc1nc(Cc2ccccc2)nc2ccccc12`, the AC50 under setting [1] was 35.5 µM [falling, partial curve, poor fit].

As for `CCOC(=O)C1=C(c2ccccc2)Nc2nc(C)nn2C1c1cccc(OC)c1OC` (stereo unspecified), the AC50 under setting [1] was 1.84 µM [rising, partial curve, poor fit].

For `Cc1ccccc1NC(=O)N1CCN(C(=O)c2ccco2)CC1`, the AC50 under setting [1] is 20 µM [falling, partial curve, poor fit].

Consider `O=C(Nc1ccc(N2CCOCC2)nc1)c1ccc(C(F)(F)F)cc1`, for which the AC50 under setting [1] is 10 µM [rising, partial curve, poor fit].

Consider `CCN1C(=NCCc2c[nH]c3ccccc23)N[C@@H](c2ccccc2)C(C(=O)OC)=C1C`, for which the AC50 under setting [1] is 10 µM [falling, partial curve] and 28.2 µM [falling, single point].

In the case of `O=C(NC(=O)c1ccccc1)Nc1ccc(Cl)cn1`, the AC50 under setting [1] was 1.26 µM [falling, full curve].

In the case of `COCCCN1C(=O)C(=O)/C(=C(/O)c2ccc3c(c2)CC(C)O3)C1c1cccnc1` (stereo unspecified), the AC50 under setting [1] was 0.00411 µM [rising, full curve, poor fit].

As to `Cc1ccnn1-c1ccc(C(=O)NCc2ccccc2CN2CCOCC2)cc1`, the AC50 under setting [1] was 20.6 µM [falling, partial curve, poor fit].

Turning to `CSc1ccc(C(=O)C2CCCN(S(=O)(=O)c3c(C)noc3C)C2)cc1` (stereo unspecified), the concentration at half-maximal activity (AC50) under setting [1] is 22.4 µM [rising, partial curve, poor fit].
